Results taken from patent US8207176B2 (Glaxo Group Limited, priority 2005, dated 2012).
Counter-ions that a name gives are not always drawn. Some results were stated once for a whole list of compounds, not compound by compound.

The chains behind the UniProt entries cited, without tags or fusion partners.
UniProt Q16539, whole entry: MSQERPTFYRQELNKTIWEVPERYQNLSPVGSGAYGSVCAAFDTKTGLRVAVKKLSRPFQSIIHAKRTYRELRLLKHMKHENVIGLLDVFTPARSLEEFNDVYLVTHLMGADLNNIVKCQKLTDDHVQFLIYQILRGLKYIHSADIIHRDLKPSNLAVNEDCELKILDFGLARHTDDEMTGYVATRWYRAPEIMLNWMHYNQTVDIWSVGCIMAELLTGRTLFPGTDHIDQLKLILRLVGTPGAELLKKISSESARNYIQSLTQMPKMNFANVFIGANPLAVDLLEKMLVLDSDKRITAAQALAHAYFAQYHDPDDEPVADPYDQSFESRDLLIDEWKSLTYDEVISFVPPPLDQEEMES

Target: T1, Recombinant human p38α (MKK6-activated) (Homo sapiens, UniProt Q16539)
T1 construct: His; made in house
Assay: Time-resolved fluorescence resonance energy transfer (TR-FRET) kinase assay (standard or low volume)
Assay type: biochemical
Design: key: Compounds are considered active in this assay if they demonstrate a pIC50 of greater than 4.6 up to about a pIC50 of greater than 10.0
Conditions: MKK6-activated p38α 100 pM, GST-ATF2 400 nM, 120 minutes at room temperature; either assay format
Procedure: It is noted that there are two assay formats shown above for the Fluorescence anisotropy kinase binding assay. The only difference between these two assays is the volume used and the plate type. […] The results described herein may have been performed in either assay format and are not differentiated as to which. […] TR-FRET Assay Time-Resolved Fluorescence Resonance Energy Transfer Kinase Standard Assay Recombinant human p38α was expressed as a His-tagged protein. To activate this protein, 3 μM unactivated p38α was incubated in 200 mM Hepes pH 7.4, 625 mM NaCl, 1 mM DTT with 27 nM active MKK6 (Upstate), 1 mM ATP and 10 mM MgCl2 The activity of the MKK6-activated p38α was assessed using a time-resolved fluorescence resonance energy transfer (TR-FRET) assay. Biotinylated-GST-ATF2 (residues 19-96, 400 nM final), ATP ([…]) and MgCl2 (5 mM final) in assay buffer (40 mM HEPES pH 7.4, 1 mM DTT) were added to wells containing 1 ul of various concentrations of compound or DMSO vehicle (3% final) in NUNC 384 well black plate. The reaction was initiated by the addition of MKK6-activated p38 (100 pM final) to give a total volume of 30 ul. The reaction was incubated for 120 minutes at room temperature, then terminated by the addition of 15 μl of 100 mM EDTA pH 7.4. Detection reagent (15 μl) in buffer (100 mM HEPES pH 7.4, 150 mM NaCl, 0.1% w/v BSA, 1 mM DTT) containing antiphosphothreonine-ATF2-71 polyclonal antibody (Cell Signalling Technology, Beverly Mass., USA) labelled with W-1024 europium chelate (Wallac OY, Turku, Finland), and APC-labelled streptavidin (Prozyme, San Leandro, Calif., USA) was added and the reaction was further incubated for 60 minutes at room temperature. The degree of phosphorylation of GST-ATF2 was measured using a Packard Discovery plate reader (Perkin-Elmer Life Sciences, Pangbourne, UK) as a ratio of specific 665 nm energy transfer signal to reference europium 620 nm signal. Time-Resolved Fluorescence Resonance Energy Transfer Kinase Low Volume Assay Recombinant human p38α was expressed as a His-tagged protein. To activate this protein, 3 μM unactivated p38α was incubated in 200 mM Hepes pH7.4, 625 mM NaCl, 1 mM DTT with 27 nM active MKK6 (Upstate), 1 mM ATP and 10 mM MgCl2 The activity of the MKK6-activated p38α was assessed using a time-resolved fluorescence resonance energy transfer (TR-FRET) assay. Biotinylated-GST-ATF2 (residues 19-96, 400 nM final), ATP (125 μM final) and MgCl2 ([…]) in assay buffer (40 mM HEPES pH 7.4, 1 mM DTT) were added to wells containing 0.1 μl of various concentrations of compound or DMSO vehicle (1.7% final) in Greiner low volume 384 well black plate. The reaction was initiated by the addition of MKK6-activated p38α (100 pM final) to give a total volume of 6 μl. The reaction was incubated for 120 minutes at room temperature, then terminated by the addition of 3 μl of detection reagent in buffer (100 mM HEPES pH 7.4, 150 mM NaCl, 0.1% w/v BSA, 1 mM DTT, 100 mM EDTA) containing antiphosphothreonine-ATF2-71 polyclonal antibody (Cell Signalling Technology, Beverly Mass., USA) labelled with W-1024 europium chelate (Wallac OY, Turku, Finland), and APC-labelled streptavidin (Prozyme, San Leandro, Calif., USA). The reaction was further incubated for 60 minutes at room temperature. The degree of phosphorylation of GST-ATF2 was measured using a BMG Rubystar plate reader (BMG, UK) as a ratio of specific 665 nm energy transfer signal to reference europium 620 nm signal. It is noted that there are two assay formats shown above for the Time-resolved fluorescence resonance energy transfer kinase assay. The only difference between these two assays is the volume used and the plate type. […] The results described herein may have been performed in either assay format and are not differentiated as to which. […] For purposes herein the HTRF assay and the Fluorescence anisotropy kinase binding assay: […]

| Compound | pIC50, reported as active |
| --- | --- |
| CCN(CC)CCCNc1nc(-c2cc(C(=O)NCC(C)(C)C)ccc2C)c2ccc(=O)n(-c3c(F)cccc3F)c2n1 [Example 127, 3-[2-{[3-(diethylamino)propyl]amino}-8-(2,6-difluorophenyl)-7-oxo-7,8-dihydropyrido[2,3-d]pyrimidin-4-yl]-N-(2,2-dimethylpropyl)-4-methylbenzamide] | active |
| CCNC(=O)c1ccc(C)c(-c2nc(NCCCN(CC)CC)nc3c2ccc(=O)n3-c2c(F)cccc2F)c1 [Example 129, 3-[2-{[3-(diethylamino)propyl]amino}-8-(2,6-difluorophenyl)-7-oxo-7,8-dihydropyrido[2,3-d]pyrimidin-4-yl]-N-ethyl-4-methylbenzamide] | active |
| CCN(CC)CCCNc1nc(-c2cc(C(=O)NCC(F)(F)F)ccc2C)c2ccc(=O)n(-c3c(F)cccc3F)c2n1 [Example 128, 3-[2-{[3-(diethylamino)propyl]amino}-8-(2,6-difluorophenyl)-7-oxo-7,8-dihydropyrido[2,3-d]-pyrimidin-4-yl]-4-methyl-N-(2,2,2-trifluoroethyl)benzamide] | active |
| CCCNC(=O)c1ccc(C)c(-c2nc(NCCCN(CC)CC)nc3c2ccc(=O)n3-c2c(F)cccc2F)c1 [Example 122, 3-[2-{[3-(diethylamino)propyl]amino}-8-(2,6-difluorophenyl)-7-oxo-7,8-dihydropyrido[2,3-d]pyrimidin-4-yl]-4-methyl-N-propylbenzamide] | active |
| CCN(CC)CCCNc1nc(-c2cc(C(=O)NCC3CCOCC3)ccc2C)c2ccc(=O)n(-c3c(F)cccc3F)c2n1 [Example 141, 3-[2-{[3-(diethylamino)propyl]amino}-8-(2,6-difluorophenyl)-7-oxo-7,8-dihydropyrido[2,3-d]pyrimidin-4-yl]-4-methyl-N-(tetrahydro-2H-pyran-4-ylmethyl)benzamide trifluoroacetate] | active |
| CCN(CC)CCCNc1nc(-c2cc(C(=O)NCC3CCCCC3)ccc2C)c2ccc(=O)n(-c3c(F)cccc3F)c2n1 [Example 135, N-(cyclohexylmethyl)-3-[2-{[3-(diethylamino)propyl]amino}-8-(2,6-difluorophenyl)-7-oxo-7,8-dihydropyrido[2,3-d]pyrimidin-4-yl]-4-methylbenzamidetrifluoroacetate] | active |
| CCN(CC)CCCNc1nc(-c2cc(C(=O)N[C@H](C)c3ccccc3)ccc2C)c2ccc(=O)n(-c3c(F)cccc3F)c2n1 [Example 148, 3-[2-{[3-(diethylamino)propyl]amino}-8-(2,6-difluorophenyl)-7-oxo-7,8-dihydropyrido[2,3-d]pyrimidin-4-yl]-4-methyl-N-[(1R)-1-phenylethyl]benzamide] | active |
| CCN(CC)CCCNc1nc(-c2cc(C(=O)N(CC)CC)ccc2C)c2ccc(=O)n(-c3c(F)cccc3F)c2n1 [Example 140, 3-[2-{[3-(diethylamino)propyl]amino}-8-(2,6-difluorophenyl)-7-oxo-7,8-dihydropyrido[2,3-d]pyrimidin-4-yl]-N,N-diethyl-4-methylbenzamide trifluoroacetate] | active |
| CCN(CC)CCCNc1nc(-c2cc(C(=O)NC3CCCC3)ccc2C)c2ccc(=O)n(-c3c(F)cccc3F)c2n1 [Example 125, N-cyclopentyl-3-[2-{[3-(diethylamino)propyl]amino}-8-(2,6-difluorophenyl)-7-oxo-7,8-dihydropyrido[2,3-d]pyrimidin-4-yl]-4-methylbenzamide] | active |
| CCN(CC)CCCNc1nc(-c2cc(C(=O)N(C)C)ccc2C)c2ccc(=O)n(-c3c(F)cccc3F)c2n1 [Example 120, 3-[2-{[3-(diethylamino)-propyl]amino}-8-(2,6-difluorophenyl)-7-oxo-7,8-dihydropyrido[2,3-d]-pyrimidin-4-yl]-N,N,4-trimethylbenzamide] | active |
